Data taken from patent US20180111893A1, “POLYCATIONIC AMPHIPHILES AND POLYMERS THEREOF AS ANTIMICROBIAL AGENTS AND METHODS USING SAME” (Temple University-Of The Commonwealth System of Higher …, priority 2015, published 2018).

Columns and labels:
[1] = tested on: community-acquired methicillin-resistant Staphylococcus aureus CA-MRSA (USA300-0114); assay: Minimum inhibitory concentration (MIC); type: cell-based; conditions: read-out: MIC v MRSA
Experimental: (§1) As used herein, the term “minimum inhibitory concentration (MIC)” refers to the lowest concentration of an antimicrobial agent that will inhibit the visible growth of a microorganism after overnight incubation. MIC values against bacteria, for example, the Gram-positive Staphylococcus aureus and Enterococcus faecalis and the Gram-negative Escherichia coli and Pseudomonas aeruginosa were determined by standard methods. See also P. A. Wayne, Methods for Dilution Antimicrobial Tests for Bacteria that Grow Aerobically; Approved Standard, Ninth Edition, 2012, CLSI Document M07-A9, Vol. 32 No. 2, which is incorporated by reference herein in its entirety.
Decyl or benzyl substituents led to decreased toxicity.
(§2) Compounds were serially diluted two-fold from a 10% DMSO/aqueous stock solution to yield twelve test concentrations. […] Plates were incubated statically at 37° C. for 72 hours upon which time wells were evaluated visually for bacterial growth. The MIC was determined as the lowest concentration of compound resulting in no bacterial growth visible to the naked eye, based on the majority of three independent experiments. […]
(§3) Compounds were serially diluted two-fold from a 10% DMSO/aqueous stock solution to yield twelve test concentrations. […] Plates were incubated statically at 37° C. for 72 hours upon which time wells were evaluated visually for bacterial growth. […]

[2] = tested on: Staphylococcus aureus (SA; MSSA SH1000); assay: Minimum inhibitory concentration (MIC); type: cell-based; conditions: read-out: MIC v SA
Experimental: as §1, §2, §3

With `CCCCCCCCCCCCCCCC[n+]1ccccc1` [Cetyl pyridinium chloride, reference compound] the MIC [1] was 16 µM and the MIC [2] was 0.5 µM.
